Experimental data reported in PubChem BioAssay AID1259415 (National Center for Advancing Translational Sciences (NCATS), 2018).
“And” between values parts separate entries of the source, which are not always exact repeats. Equal values may be shown once. The whole screen tested about 410,000 compounds, of which about 18,000 (4.4%) were called active. The inconclusive results got no clear call from the source; some entries with a clear call stand among them for comparison. No stated cut-off is given here; in the data, active means activity change below about -60%; inconclusive means no clear call, values can overlap the other calls; inactive means above about -39%.

Assay: qHTS Assay for inhibitors of the human cytomegalovirus (HCMV)
Conditions: HFF cells, HCMV-luciferase reporter, 72 h; at 57.5 µM; active compounds read low
In short: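 Human foreskin fibroblasts infected with luciferase-reporter HCMV at MOI 1 PFU/cell, compounds at two doses. Luciferase measured 72 h post infection; normalized to buffer-only basal and Salinomycin (10uM) controls.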
On the % scale 0 is the no-effect control and ±100 the full control effect.

Row | SMILES | activity change, negative = inhibition
1 | Cc1ccc(C(=O)NC(=S)Nc2cccc3c(C)cc(C)nc23)cc1 | inactive: 1.6%
2 | CCN1C(=O)c2ccccc2Sc2ccc(C(=O)NC(C)C)cc21 | active: -101%
3 | COc1cccc(Cn2c(C3CC3)nc3ccc(NC(=O)c4ccco4)cc3c2=O)c1 | inconclusive: -53.5%
4 | O=C(c1cc(=O)c2ccccc2o1)N1CCN(c2ccccc2F)CC1 | inconclusive: -47.9%
5 | Cc1ccc(N2C(=O)NC(NS(=O)(=O)c3ccccc3)(C(F)(F)F)C2=O)cc1C (configuration not stated) | inactive: -0.223% and inactive: -14.7%
6 | Cc1cc(C(=O)NCC(=O)OC(C)C(=O)N2CCOCC2)ccc1[N+](=O)[O-] (configuration not stated) | inconclusive: -52.8%
7 | O=C(c1ccco1)N1CCN(C(=O)N2CCCCC2)CC1 | inconclusive: -40.9%
8 | CN(C)c1ccc(C(CNC(=O)COc2ccc(Cl)cc2)N2CCCC2)cc1 (configuration not stated) | inconclusive: -44.2%
9 | Cc1cc(C)c2nc(N3CCC(C(=O)N4CCN(C(=O)c5ccco5)CC4)CC3)sc2c1 | inconclusive: -50.1%
10 | CCCCCCCCN1C(=O)[C@H](CC(=O)N2CCN(C(=O)C3CC3)CC2)C[C@@]2(C(=O)OC)CCCCC=C12 | inactive: 10.7%
11 | COc1ccc2sc(-c3ccccc3OC)c(C#Cc3cncn3C)c2c1 | inactive: -29.6%
12 | CCOC(=O)C1=C(COC(=O)Cc2ccccc2F)NC(=O)NC1C (configuration not stated) | inactive: -19.7%
13 | O=C(Cn1c2ncccc2c(=O)n1-c1ccccc1)NCc1ccccc1Cl | inconclusive: -47.1%
14 | CCCCSc1nc(N)c(C#N)c(-c2cccs2)c1C#N | inconclusive: -47.8%
15 | Cc1cc(C)nc(Nc2cccc3ccccc23)n1 | inconclusive: -42.5%
16 | C/C(=N\NC(=O)C1COc2ccccc2O1)c1cccs1 (configuration not stated) | active: -60.2%
17 | CN(c1ccccc1)S(=O)(=O)c1cccc(NC(=O)COc2cccc([N+](=O)[O-])c2)c1 | inconclusive: -41.6%
18 | Cc1ccc(S(=O)(=O)N2CCc3cc(C(=O)Nc4ccc(C(F)(F)F)cc4)ccc32)cc1 | inactive: -1.31%
19 | Cc1ccccc1-n1c(CSC(=N)N)nc2ccccc2c1=O | inconclusive: -58.1%
20 | CCCCc1ccc(Nc2nc(N3CCOCC3)nc(N3CCOCC3)n2)cc1 | inconclusive: -56.4%
21 | CC(C)N1C(=O)CC[C@@H](S(=O)(=O)c2ccccc2)[C@@H]1/C=C/c1ccccc1 | inactive: 23.2%

Row | SMILES | activity change, negative = inhibition
22 | Cc1cc(C)nc(NS(=O)(=O)c2ccc(N3C(=O)c4ccccc4C3=O)cc2)n1 | inconclusive: -51.8%
23 | CCOc1ccccc1CN1CCNC(=O)C1CC(=O)NCCCn1cccn1 (configuration not stated) | inconclusive: -43.3%
24 | Cc1cc(C)c(C#N)c(N2CCN(c3ccccc3F)CC2)n1 | inactive: -1.9%
25 | COc1ccc(CCNC(=O)CSc2cn(CCNC(=O)c3cccc(C(F)(F)F)c3)c3ccccc23)cc1OC | inconclusive: -59.5%
26 | CCc1ccc(-c2cc3c(=O)n(CC(=O)NCCCN4CCN(C)CC4)ncn3n2)cc1 | inactive: -9.25%
27 | CC1(C)Cc2c(cnn2-c2ccc(F)cc2)C(NC(=O)CCN2CCCCO2)C1 (configuration not stated) | inconclusive: -41.7%
28 | O=C1N=c2ccccc2=C1c1sc(NS(=O)(=O)Cc2ccccc2)nc1O | inconclusive: -41.2%
29 | COc1ccc(C(=O)c2sc3nc(C)cc(-c4cccs4)c3c2N)cc1OC | active: -60.9%
30 | CCOc1ccccc1NC(=O)C(CC)Sc1nc2ncccc2[nH]1 (configuration not stated) | inconclusive: -55.6%
31 | COc1ccc(-n2nnc3c(SCC(=O)NCC4CCCO4)ncnc32)cc1 (configuration not stated) | inactive: -2.1%
32 | O=C(CN1C(=O)/C(=C/c2ccc(F)cc2)SC1=S)N1CCN(CCc2ccccn2)CC1 | inconclusive: -58.4%
33 | COc1ccccc1CNS(=O)(=O)c1ccc2c(c1)CC(=O)N2C | inactive: 4.48% and inactive: -19.5%
34 | CN(Cc1nc2ccccc2c(=O)[nH]1)c1ccccc1 | inactive: 66%
35 | c1ccc2c(c1)OC(CCCN1CCCCC1)c1ccccc1S2 (configuration not stated) | inactive: -28.7%
36 | Cc1ccc(S(=O)(=O)Nc2cc(C)cn(Cc3ccccc3)c2=O)cc1 | inconclusive: -41.7%
37 | Cc1ccc(-c2cc(C(=O)N3CCOCC3)no2)cc1 | active: -61.4%
38 | CC(C)CN(C(=O)COC(=O)Cc1cccc2ccccc12)c1c(N)n(Cc2ccccc2)c(=O)[nH]c1=O | inconclusive: -40.6%
39 | CN(C)C(=O)NC1CCCCCCCCCCC1 | inconclusive: -52.1%
40 | O=C(COC(=O)CCCNC(=O)c1ccc(Cl)cc1)NC1CC1 | inactive: 28.4%
41 | C=CCn1c(SCC(=O)Nc2ccccc2)nnc1-c1cccc(S(=O)(=O)N2CCOCC2)c1 | inactive: 32.7%
42 | CCN(CC)CCN(C(=O)C1=COCCO1)c1nc2ccc(C)cc2s1 | inactive: 48.8%

As entered above:
CCOc1ccccc1NC(=O)C(CC)Sc1nc2ncccc2[nH]1 (configuration not stated) – activity change, negative = inhibition: inconclusive: -55.6%
O=C1N=c2ccccc2=C1c1sc(NS(=O)(=O)Cc2ccccc2)nc1O – activity change, negative = inhibition: inconclusive: -41.2%
